Results reported in paper PMC11612967.
Results are given in words; binding and its absence hold for the method and conditions named. In cells and extracts the contact can be indirect. Some results given as binding are weak or reduced against the parent protein; the word gives no strength.

Chains of the proteins cited; added tags and fusions are not shown.
UniProt Q8IY18: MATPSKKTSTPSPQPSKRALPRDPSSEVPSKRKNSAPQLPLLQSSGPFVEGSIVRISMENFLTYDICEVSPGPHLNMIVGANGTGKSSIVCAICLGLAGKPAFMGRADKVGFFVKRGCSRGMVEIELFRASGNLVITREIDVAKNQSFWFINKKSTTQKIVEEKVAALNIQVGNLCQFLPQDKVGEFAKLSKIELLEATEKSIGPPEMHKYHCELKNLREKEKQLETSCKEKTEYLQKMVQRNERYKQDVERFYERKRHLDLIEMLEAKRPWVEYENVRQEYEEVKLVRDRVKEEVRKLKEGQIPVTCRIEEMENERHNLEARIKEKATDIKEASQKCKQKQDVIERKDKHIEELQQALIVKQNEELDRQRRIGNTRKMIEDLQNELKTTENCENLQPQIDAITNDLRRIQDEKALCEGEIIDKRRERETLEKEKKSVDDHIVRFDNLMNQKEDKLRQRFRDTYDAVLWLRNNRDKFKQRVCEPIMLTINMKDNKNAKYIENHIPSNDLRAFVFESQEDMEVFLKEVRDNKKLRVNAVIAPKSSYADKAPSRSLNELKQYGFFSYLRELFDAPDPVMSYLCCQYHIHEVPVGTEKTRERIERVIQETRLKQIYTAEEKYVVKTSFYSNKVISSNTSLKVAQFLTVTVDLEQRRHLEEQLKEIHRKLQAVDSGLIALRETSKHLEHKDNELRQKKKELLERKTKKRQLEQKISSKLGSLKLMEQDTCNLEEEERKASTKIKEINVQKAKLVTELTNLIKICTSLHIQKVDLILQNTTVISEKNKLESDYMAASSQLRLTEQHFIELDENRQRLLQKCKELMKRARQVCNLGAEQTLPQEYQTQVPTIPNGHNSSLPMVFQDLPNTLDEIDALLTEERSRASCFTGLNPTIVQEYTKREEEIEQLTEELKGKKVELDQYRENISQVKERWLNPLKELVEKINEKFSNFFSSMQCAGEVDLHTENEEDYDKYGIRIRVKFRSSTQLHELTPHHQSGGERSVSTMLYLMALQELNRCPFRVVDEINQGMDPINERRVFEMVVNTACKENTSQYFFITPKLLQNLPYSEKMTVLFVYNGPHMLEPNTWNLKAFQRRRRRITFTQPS

Columns and labels:
[1] = molecular target: T1, S. cerevisiae Nse1 (S. cerevisiae), Q07913; test: pull-down; S. cerevisiae Smc5/6 subunits co-expressed in E. coli Rosetta (DE3), one subunit with a Twin-Strep tag (N- or C-terminal); clarified lysate on Strep-Tactin Sepharose, 1 h at 4°C, 50 mM Tris-HCl pH 7.5, 300 mM NaCl, 5% glycerol; eluted with 2.5 mM desthiobiotin; Coomassie-stained SDS-PAGE; conditions: remark: other sources report otherwise
T1 chain: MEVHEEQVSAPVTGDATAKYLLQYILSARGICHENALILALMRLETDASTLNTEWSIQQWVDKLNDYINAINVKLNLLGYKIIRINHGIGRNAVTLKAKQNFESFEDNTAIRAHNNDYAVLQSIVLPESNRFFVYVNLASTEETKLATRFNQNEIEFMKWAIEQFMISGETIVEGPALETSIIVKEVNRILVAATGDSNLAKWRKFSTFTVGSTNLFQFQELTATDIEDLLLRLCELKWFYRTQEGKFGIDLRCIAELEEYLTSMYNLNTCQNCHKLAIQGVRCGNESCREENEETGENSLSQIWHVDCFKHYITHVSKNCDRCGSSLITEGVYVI

[2] = molecular target: T2, S. cerevisiae Nse4 (S. cerevisiae), P43124; test: as above; conditions: remark: other sources report otherwise
T2 chain: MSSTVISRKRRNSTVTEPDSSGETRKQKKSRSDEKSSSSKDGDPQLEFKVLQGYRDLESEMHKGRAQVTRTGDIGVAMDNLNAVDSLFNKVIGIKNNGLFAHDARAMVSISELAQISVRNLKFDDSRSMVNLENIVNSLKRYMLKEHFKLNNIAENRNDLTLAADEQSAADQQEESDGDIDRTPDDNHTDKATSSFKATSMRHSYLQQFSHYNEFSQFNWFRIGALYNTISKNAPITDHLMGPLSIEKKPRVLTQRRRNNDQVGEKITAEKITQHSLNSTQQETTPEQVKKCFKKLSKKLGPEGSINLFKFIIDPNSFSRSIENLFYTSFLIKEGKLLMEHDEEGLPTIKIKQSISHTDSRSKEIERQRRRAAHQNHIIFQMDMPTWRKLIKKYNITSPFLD

[3] = molecular target: T3, S. cerevisiae Nse3 (S. cerevisiae), Q05541; test: as above; conditions: remark: other sources report otherwise
T3 chain: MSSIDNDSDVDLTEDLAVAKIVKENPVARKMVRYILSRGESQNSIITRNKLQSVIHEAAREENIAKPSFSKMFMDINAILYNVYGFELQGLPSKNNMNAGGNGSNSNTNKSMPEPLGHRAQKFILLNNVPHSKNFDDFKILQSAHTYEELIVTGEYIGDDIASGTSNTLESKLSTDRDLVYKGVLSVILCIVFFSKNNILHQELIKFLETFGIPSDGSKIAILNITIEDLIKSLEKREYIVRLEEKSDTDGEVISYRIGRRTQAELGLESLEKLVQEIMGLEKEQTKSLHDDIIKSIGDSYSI

[4] = molecular target: T4, H. sapiens Nse2 (H. sapiens) (UniProt Q96MF7); test: pull-down; H. sapiens Smc5/6 subunits co-expressed in transfected HEK293 cells (10-ml scale), one subunit tagged (N- or C-terminal); lysis buffer with Benzonase and protease inhibitors, processed as for the small-scale expression in E. coli; Coomassie-stained SDS-PAGE
T4 sequence: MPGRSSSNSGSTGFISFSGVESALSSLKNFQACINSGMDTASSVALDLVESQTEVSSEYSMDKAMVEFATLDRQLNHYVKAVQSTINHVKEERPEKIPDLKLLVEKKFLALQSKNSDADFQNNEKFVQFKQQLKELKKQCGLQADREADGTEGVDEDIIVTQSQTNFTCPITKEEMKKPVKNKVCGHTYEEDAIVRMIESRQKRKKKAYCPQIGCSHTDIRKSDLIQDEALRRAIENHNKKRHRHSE

[5] = molecular target: T5, H. sapiens Nse3 (H. sapiens) (UniProt Q96MG7); test: as above
T5 sequence: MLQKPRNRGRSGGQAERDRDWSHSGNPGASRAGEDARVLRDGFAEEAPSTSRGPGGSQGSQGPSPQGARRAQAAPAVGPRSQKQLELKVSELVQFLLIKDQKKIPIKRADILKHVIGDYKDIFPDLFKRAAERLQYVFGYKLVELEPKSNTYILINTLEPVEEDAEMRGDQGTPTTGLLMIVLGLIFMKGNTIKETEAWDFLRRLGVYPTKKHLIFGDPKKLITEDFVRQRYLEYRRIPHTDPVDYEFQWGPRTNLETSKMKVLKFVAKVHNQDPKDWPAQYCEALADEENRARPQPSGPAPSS

[6] = molecular target: T6, H. sapiens Smc6 (H. sapiens) (UniProt Q96SB8); test: as above
T6 sequence: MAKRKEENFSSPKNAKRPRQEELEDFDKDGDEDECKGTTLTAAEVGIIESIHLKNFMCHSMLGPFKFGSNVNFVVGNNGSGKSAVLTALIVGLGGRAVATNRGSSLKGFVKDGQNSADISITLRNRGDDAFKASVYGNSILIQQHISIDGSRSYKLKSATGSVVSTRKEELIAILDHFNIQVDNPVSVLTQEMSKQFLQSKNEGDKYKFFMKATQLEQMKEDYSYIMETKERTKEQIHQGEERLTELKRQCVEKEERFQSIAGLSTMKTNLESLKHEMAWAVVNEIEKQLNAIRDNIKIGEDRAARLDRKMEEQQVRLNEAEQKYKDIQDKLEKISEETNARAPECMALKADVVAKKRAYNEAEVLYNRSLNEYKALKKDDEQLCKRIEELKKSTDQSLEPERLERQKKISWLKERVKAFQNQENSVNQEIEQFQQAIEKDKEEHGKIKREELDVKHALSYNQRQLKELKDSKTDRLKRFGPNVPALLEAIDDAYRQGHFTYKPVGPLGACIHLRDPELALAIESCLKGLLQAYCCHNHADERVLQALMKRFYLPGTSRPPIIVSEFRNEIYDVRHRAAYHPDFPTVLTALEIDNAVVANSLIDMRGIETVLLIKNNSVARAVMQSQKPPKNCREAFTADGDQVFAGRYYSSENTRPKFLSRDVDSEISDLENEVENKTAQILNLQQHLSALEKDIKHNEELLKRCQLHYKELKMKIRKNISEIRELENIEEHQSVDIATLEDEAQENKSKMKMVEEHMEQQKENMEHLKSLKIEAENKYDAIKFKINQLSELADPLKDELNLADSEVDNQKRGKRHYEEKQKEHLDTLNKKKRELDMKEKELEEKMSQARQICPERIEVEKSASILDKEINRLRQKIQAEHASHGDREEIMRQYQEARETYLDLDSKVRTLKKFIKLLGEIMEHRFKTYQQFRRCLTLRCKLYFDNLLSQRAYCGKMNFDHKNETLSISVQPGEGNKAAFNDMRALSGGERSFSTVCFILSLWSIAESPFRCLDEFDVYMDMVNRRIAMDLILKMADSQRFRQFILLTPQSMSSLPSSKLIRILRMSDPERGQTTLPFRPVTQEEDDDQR

[7] = molecular target: H. sapiens Smc5 (H. sapiens) (UniProt Q8IY18); test: as above
[8] = molecular target: T7, H. sapiens Nse1 (H. sapiens) (UniProt Q8WV22); test: as above
T7 sequence: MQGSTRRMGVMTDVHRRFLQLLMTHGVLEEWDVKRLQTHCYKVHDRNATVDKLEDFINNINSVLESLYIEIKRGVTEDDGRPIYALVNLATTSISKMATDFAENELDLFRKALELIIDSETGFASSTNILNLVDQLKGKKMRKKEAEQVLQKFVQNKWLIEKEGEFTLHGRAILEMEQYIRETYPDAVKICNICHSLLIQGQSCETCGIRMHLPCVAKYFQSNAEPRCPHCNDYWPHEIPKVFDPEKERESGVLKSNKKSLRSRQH

Measured: binding

B1: S. cerevisiae Nse2, P38632 1-267 (protein)
chain: MALNDNPIPKSVPLHPKSGKYFHNLHARDLSNIYQQCYKQIDETINQLVDSTSPSTIGIEEQVADITSTYKLLSTYESESNSFDEHIKDLKKNFKQSSDACPQIDLSTWDKYRTGELTAPKLSELYLNMPTPEPATMVNNTDTLKILKVLPYIWNDPTCVIPDLQNPADEDDLQIEGGKIELTCPITCKPYEAPLISRKCNHVFDRDGIQNYLQGYTTRDCPQAACSQVVSMRDFVRDPIMELRCKIAKMKESQEQDKRSSQAIDVL
binds: [1] | [2] | [3]

B2: H. sapiens Nse1 (protein, UniProt Q8WV22 1-266)
chain: T7 sequence
binds: [4] | [5] | [6] | [7]

B3: H. sapiens Nse2 (protein, UniProt Q96MF7 1-247)
chain: T4 sequence
binds: [5] | [8] | [6] | [7]

B4: H. sapiens Nse3 (protein, UniProt Q96MG7 1-304)
chain: T5 sequence
binds: [4] | [8] | [6] | [7]
